Measured values: PMC10945584
These are yes or no findings as the source states them, for the method shown. Binding seen in cells or lysates may run through a third protein. Some entries that bind do so weakly or less than the wild type.

Legend:
[1] = target: BamD, His6-tagged, purified (Escherichia coli) (UniProt P0AC02); assay: pull-down; 10 μM purified BamA or BamD in Buffer A (150 mM NaCl, 20 mM NaPO4) pre-incubated 1 h at 4 °C with 0.35 mM peptide or DMSO, then 35S-OmpC 30 min, Ni-NTA; the pair OmpC with BamA or BamD; only the target purified
[2] = target: BamD, His6-tagged, purified (Escherichia coli) (UniProt P0AC02); assay: pull-down; purified His-tagged BamA, BamD or BamB incubated with 35S-OmpC for 60 min at 4 °C, then Ni-NTA 30 min; wash Buffer A with 20 mM imidazole, elution 400 mM imidazole; SDS-PAGE and radio-imaging; only the target purified
[3] = target: BamB, His6-tagged, purified (Escherichia coli) (UniProt P77774); assay: as above

B1: 35S-labeled OmpC, in vitro translated (protein, UniProt P06996 1-367)
chain: MKVKVLSLLVPALLVAGAANAAEVYNKDGNKLDLYGKVDGLHYFSDNKDVDGDQTYMRLGFKGETQVTDQLTGYGQWEYQIQGNSAENENNSWTRVAFAGLKFQDVGSFDYGRNYGVVYDVTSWTDVLPEFGGDTYGSDNFMQQRGNGFATYRNTDFFGLVDGLNFAVQYQGKNGNPSGEGFTSGVTNNGRDALRQNGDGVGGSITYDYEGFGIGGAISSSKRTDAQNTAAYIGNGDRAETYTGGLKYDANNIYLAAQYTQTYNATRVGSLGWANKAQNFEAVAQYQFDFGLRPSLAYLQSKGKNLGRGYDDEDILKYVDVGATYYFNKNMSTYVDYKINLLDDNQFTRDAGINTDNIVALGLVYQF
modifications: 35S-methionine label
For B1, the binding [1] was “binds”, the binding [2] was “binds” and the binding [3] was “no binding”.
